PubChem BioAssay AID743454 – Peter MacCallum Cancer Centre | 2014
Here is one part, drawn at random, of about 18,000 reagents tested. Over the whole deposit, 450 (2.5%) are marked active. 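Single biological run; no consistent viability z cut-off exists, so the class columns, not z-scores, define the calls.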 Entries without a mark were called inactive.

Screen: 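Search for knock-downs that restore vorinostat killing in resistant colon cancer cells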 (primary screen)
Cells: human HCT116-VR colon cancer cells, selected for vorinostat resistance
Reagent: siRNA pool against human genes, 40 nM siRNA pool
Duration: vorinostat for 24 h, read-out about 72 h after transfection
Challenge: vorinostat at 2.5 µM final
Measurement: 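Cell viability by CellTiter-Fluor and caspase 3/7 activity by luminescence, each scaled to mock wells per plate, duplicates averaged, then robust z-scored over all plates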
Direction: viability robust z-score: higher = more viable cells than screen typical; caspase robust z-score: higher = more caspase 3/7 activity than screen typical
Active means: 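a knock-down is a hit when classed RV1 or RV2 for lowered viability, or CA1 or CA2 for caspase activation; those lethal without drug were dropped; hits were retested singly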

no.	gene knocked down	PubChem SID	viability hit class	caspase hit class	viability robust z-score	caspase robust z-score
1	SCGB1C1	SID135622979	no change	no change	-1.19	-0.43
2	LPCAT4	SID152152183	no change	no change	-0.07	-0.2
3	SHLD1	SID134322608	no change	no change	0.64	-0.63
4	CA7	SID135621653	no change	no change	-0.32	-0.67
5	CAB39	SID134319452	no change	no change	-0.2	-0.63
6	DGAT2	SID134314091	no change	no change	0.9	0.6
7	TNFSF4	SID134315757	no change	no change	-1.46	1.07
8	TAPT1	SID152155465	no change	no change	-0.28	0.36
9	MST1	SID134313787	no change	no change	0.03	2.28
10	LATS2	SID152149461	no change	no change	-0.17	0.6
11	C22orf23	SID135623215	no change	no change	0.05	0.2
12	CCL4L2	SID135625188	no change	no change	0.62	-1
13	SLC8A2	SID152151457	no change	no change	0.53	0.2
14	TMEM158	SID152152812	no change	no change	-0.42	2.12
15	PRKAR2B	SID56479179	no change	no change	-0.6	-0.14
16	HOXA7	SID152155780	no change	no change	1.54	-0.52
17	KIF3A	SID152147606	no change	no change	0.61	0.3
18	TMED6	SID152148163	no change	no change	-1.34	-0.3
19	PDSS1	SID135621571	no change	no change	-0.89	0.54
20	IL17F	SID152155155	no change	no change	-0.04	-0.52
21	LCE3D	SID135622844	no change	no change	-1.08	0.38
22	SIRAL2	SID152150106	no change	no change	-1.04	-0.89
23	EEF1G	SID152147235	no change	no change	0.16	0.62

Already shown: entries from further up.
no.	gene knocked down	PubChem SID	viability hit class	caspase hit class	viability robust z-score	caspase robust z-score
18	TMED6	SID152148163	no change	no change	-1.34	-0.3
19	PDSS1	SID135621571	no change	no change	-0.89	0.54
